Results reported in patent US20220017627A1.

Target: human IL-7Rα expressed on human T cells (whole blood / PBMCs) (human)
Assay: flow cytometry, T cells of human whole blood

binding: binds
B1: Anti-IL-7R Antibody (Antibody A) (antibody, human IgG1, kappa, V domains shown)
VH: EVQLVESGGGLVQPGRSLRLSCAASGFTFDDHAMHWVRQAPGKGLEWVSGISWNSRGIGYADSVKGRFTIFRDNAKNSLYLQMNSLRAEDTALYYCAKDEYSRGYYVLDVWGQGTTVTVSS
VL: AIQLTQSPSSLSASVGDRVTITCRASQGISSALAWYQQKPGKAPKLLIYDASSLESGVPSRFSGSGSGTDFTLTISSLQPEDFATYYCQQFNSYPLWITFGQGTRLEIKR

These are yes or no findings as the source states them, for the method shown. Binding calls can cover weak binding; strength is not graded here.
